{
  "sequences": {"note": "Sequences of proteins named here, by UniProt entry; tags and fusion partners are left off.", "UniProt P03209": "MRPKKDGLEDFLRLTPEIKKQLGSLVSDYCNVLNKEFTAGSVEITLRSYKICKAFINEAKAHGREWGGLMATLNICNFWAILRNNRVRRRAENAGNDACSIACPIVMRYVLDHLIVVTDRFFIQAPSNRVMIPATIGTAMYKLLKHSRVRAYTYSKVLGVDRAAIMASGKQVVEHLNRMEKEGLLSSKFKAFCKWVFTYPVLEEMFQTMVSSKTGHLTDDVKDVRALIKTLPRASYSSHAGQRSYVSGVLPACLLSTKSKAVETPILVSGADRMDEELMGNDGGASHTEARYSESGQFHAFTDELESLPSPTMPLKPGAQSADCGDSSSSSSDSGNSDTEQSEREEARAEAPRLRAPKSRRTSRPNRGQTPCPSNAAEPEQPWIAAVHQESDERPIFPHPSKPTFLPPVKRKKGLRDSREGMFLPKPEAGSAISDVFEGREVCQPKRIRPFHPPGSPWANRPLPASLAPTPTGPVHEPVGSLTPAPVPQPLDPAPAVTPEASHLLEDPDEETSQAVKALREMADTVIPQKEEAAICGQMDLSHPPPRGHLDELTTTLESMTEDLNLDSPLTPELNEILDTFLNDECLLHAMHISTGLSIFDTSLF", "UniProt Q9C035": "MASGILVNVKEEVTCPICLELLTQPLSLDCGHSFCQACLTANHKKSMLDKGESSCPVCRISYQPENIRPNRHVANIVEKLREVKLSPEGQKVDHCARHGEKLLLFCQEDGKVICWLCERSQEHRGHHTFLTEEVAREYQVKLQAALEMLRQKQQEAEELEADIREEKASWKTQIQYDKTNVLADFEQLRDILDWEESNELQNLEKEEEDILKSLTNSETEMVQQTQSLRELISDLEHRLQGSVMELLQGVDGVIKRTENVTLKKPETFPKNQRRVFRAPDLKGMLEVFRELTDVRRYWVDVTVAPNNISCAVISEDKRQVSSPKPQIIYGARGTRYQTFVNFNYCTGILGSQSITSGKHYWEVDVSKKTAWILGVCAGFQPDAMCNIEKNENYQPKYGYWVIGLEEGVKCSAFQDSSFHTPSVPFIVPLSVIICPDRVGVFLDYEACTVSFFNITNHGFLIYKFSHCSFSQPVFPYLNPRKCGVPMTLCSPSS"},
  "source": "paper PMC5214253",
  "target": "Replication and transcription activator (Rta) of Epstein–Barr virus, endogenous in lytically induced P3HR1 cells (Epstein–Barr virus (endogenous in P3HR1)) (UniProt P03209)",
  "assay": "affinity purification with mass spectrometry",
  "note": "These are yes or no findings as the source states them, for the method shown. Binding seen in cells or lysates may run through a third protein. These calls come from enrichment with a bait or labelling near it, and not all partners need be listed.",
  "data": [
    {"substance": "TRIM5α, endogenous in P3HR1 cells (from UniProt Q9C035 1-493)", "values": [
      {"measurement": "binding", "result": "binds"}
    ]}
  ]
}
